The record followed here is patent US20180362632A1.

Residue numbers refer to the chain shown, from its start. No constants are given. Whether binding was seen depends on the method and setting. Binding calls can cover weak binding; strength is not graded here.

The chains are these.
B1: Hu23F4-13 (antibody, V domains shown)
VH: EVQLVQSGAEVKKPGATVKISCKVSGYTFTSHYLHWVQQAPGKGLEWIGWIFPGDDKTKYNEKFKGRATLTSDTSTDTAYMELSSLRSEDTAVYYCARGTKYLNWNFDVWGQGTTVTVSS
VL: DIQLTQSPSFLSASVGDRVTITCKANQNVGTTLAWYQQKPGKAPKLLIYSASYRYSGVPSRFSGSGSGTEFTLTISSLQPEDFATYYCHQYTTYPLTFGGGTKVEIK
B2: Hu23F4-27 (antibody, V domains shown)
VH: EVQLVQSGAEVKKPGASVKVSCKASGYTFTSHYLHWVRQAPGQGLEWMGWIFPGDDKTKYNEKFKGRVTMTSDTSISTAYMELSRLRSDDTAVYYCARGTKYLNWNFDVWGQGTTVTVSS
VL: B1 VL with A43S, L46A, S60D, E70D, Y87F
B3: Hu23F4-36 (antibody, V domains shown)
VH: B2 VH with G26D, F29L, M48I, V68A, M70L
VL: B1 VL
B4: Hu50C5-17 (antibody, V domains shown)
VH: EVQLVQSGAEVKKPGSSVKVSCKASGYIFSPYSIHWVRQAPGQGLEWIGYINPSTGYIEYNQHFKDRTTLTADKSTSTAYMELRSLRSEDTAVYYCARGGDYEGYFDYWGQGTTVTVSS
VL: DIQMTQSPSSLSASVGDRVTITCRLNENIYSFLAWYQQKPGKAPKLLVYNAETLAEGVPSRFSGSGSGTDFTLTISSLQPEDFATYYCQQHYGTPYTFGGGTKVEIK
B5: Hu50C5-23 (antibody, V domains shown)
VH: B4 VH with S30T
VL: B4 VL with G57D

For the test, the target named is recombinant rhesus GM-CSF protein (rhesus). The test can be described thus: ELISA, plate-coated rhesus GM-CSF (FIG. 11). For orientation: An ELISA detects its analyte on a solid surface through an enzyme-linked reagent.
For B1, the binding entry was “binds”.

In the case of B2, the binding entry is “binds”.

B3: the binding result is “binds”.

As to B4, the binding result is given as “binds”.

Take B5: the binding entry is “binds”.
